# In PubChem BioAssay AID540276 (National Center for Advancing Translational Sciences (NCATS), 2011):
# Where “and” joins values, the source holds several entries; their conditions need not be identical. Equal values may be shown once. Screen size: about 300,000 compounds; about 5,400 (1.8%) were called active. Inconclusive results, whose numbers are uncertain, are shown with a selection of clear calls. Calls follow the shape of the full dose curve; tested in HEK293 cells. Potencies of inconclusive entries are doubtful fits and often do not repeat.
# Experiment: qHTS for inhibitors of binding or entry into cells for Marburg Virus
# Conditions: Marburg virus pseudotyped entry inhibition, cell reporter; activity change, negative = inhibition: at 37.8 µM (top of the series) unless noted
# % is scaled to controls: 0 for no effect and ±100 for the full control effect; potency is read from the fitted curve at half-maximal effect.
Compound,Potency,"activity change, negative = inhibition"
COc1ccc(-c2cn3cccnc3n2)cc1F,"inconclusive: 0.316 µM [activator, partial curve, poor fit]",–
COc1cc(NC(=O)c2ccc(Cl)cc2)c(OC)cc1NC(=O)CN1CCOCC1,"inconclusive: 22.4 µM [inhibitor, single point]",–
Cn1c(=O)c2[nH]c(COc3ccccc3)nc2n(C)c1=O,"inconclusive: 3.55 µM [inhibitor, partial curve, poor fit]",–
Cc1ccccc1N1CC(C(=O)Nc2ccncc2)CC1=O (centres undefined),–,inconclusive: 10.6% [activator] [at 46.1 µM]
Cc1ccc(SCC(=O)NCCC2=CCCCC2)cc1,"inconclusive: 32.6 µM [activator, partial curve, poor fit]",–
CCCCn1c(N)c(N(CC(C)C)C(=O)C2CC(=O)N(CCc3ccccc3)C2)c(=O)[nH]c1=O (centres undefined),"inconclusive: 1.26 µM [inhibitor, single point]",–
Cc1ccc(NC(=O)OCCN2CCN(Cc3ccccc3)CCC2=O)cc1,inactive,–
N/C(Cc1ccc([N+](=O)[O-])cc1)=N\OC(=O)CC1CCCCC1,"inconclusive: 5.62 µM [activator, single point]",–
O=C(CCc1ccccc1)NC(NC(=S)Nc1ccc(Cl)cc1)C(Cl)(Cl)Cl (centres undefined),active: 11.2 µM,–
CCc1ccc(NC(=O)C(C)OC(=O)/C=C/c2ccc(O)c(OC)c2)cc1 (centres undefined),"inconclusive: 0.355 µM [activator, full curve]",–
CCOC(=O)c1[nH]c(COC(=O)c2ccccc2NC(=O)c2ccco2)c(C(=O)OCC)c1C,inactive,–
Cc1cccc2nc(-c3cccnc3)c(Nc3ccc(C(C)C)cc3)n12,"inconclusive: 22.4 µM [inhibitor, single point]",–
Cc1cc(Br)ccc1NC(=O)c1cc2c(=O)n(C)c3cc(Cl)ccc3c2s1,inactive,–
Cc1ccc(CNC(=O)c2ccccc2NC(=O)CSc2nnnn2C)cc1,"inconclusive: 0.158 µM [inhibitor, full curve]",–
CCCCc1nc2sc3c(SCC(=O)NCc4ccco4)ncnc3c2c2c1CCC2,"inconclusive: 1.12 µM [inhibitor, full curve, poor fit]",–
CCCCCC(=O)c1ccc(O)cc1O,"inconclusive: 20 µM [inhibitor, single point]",–
COc1ccc(N/C=C\C(=O)c2ccc3c(c2)OCO3)cc1OC,inactive,–
CNS(=O)(=O)/C=C/c1ccccc1,"inconclusive: 5.62 µM [inhibitor, partial curve, poor fit]",–
Nc1cc(C(F)(F)F)ccc1NCCc1ccccn1,inactive,–
COc1cccc(/C=N/n2c(=S)n(C)c3ccccc32)c1OC,inactive,–
CC(C)(C)c1ccc(CNC(=O)C2CCCN2C(=O)Nc2ccccc2)cc1 (centres undefined),"inconclusive: 1 µM [inhibitor, full curve, poor fit]",–
O=C(c1cc(-c2ccc(Cl)cc2Cl)on1)N1CCCCCC1,"inconclusive: 8.91 µM [inhibitor, partial curve, poor fit]",–
N#Cc1c(NC(=O)CSc2nc(N)cc(=O)[nH]2)sc2c1CCCC2,active: 10 µM,–

# Retrieved one by one from the list above, 5 records:
Compound,Potency,"activity change, negative = inhibition"
CC(C)(C)c1ccc(CNC(=O)C2CCCN2C(=O)Nc2ccccc2)cc1 (centres undefined),"inconclusive: 1 µM [inhibitor, full curve, poor fit]",–
Cc1ccccc1N1CC(C(=O)Nc2ccncc2)CC1=O (centres undefined),–,inconclusive: 10.6% [activator] [at 46.1 µM]
COc1cc(NC(=O)c2ccc(Cl)cc2)c(OC)cc1NC(=O)CN1CCOCC1,"inconclusive: 22.4 µM [inhibitor, single point]",–
O=C(CCc1ccccc1)NC(NC(=S)Nc1ccc(Cl)cc1)C(Cl)(Cl)Cl (centres undefined),active: 11.2 µM,–
CNS(=O)(=O)/C=C/c1ccccc1,"inconclusive: 5.62 µM [inhibitor, partial curve, poor fit]",–

# (list continues)

Compound,Potency,"activity change, negative = inhibition"
CC(=O)c1ccc(N2CCN(c3nc4c(S(=O)(=O)c5ccccc5)nnn4c4ccc(Cl)cc34)CC2)cc1,"inconclusive: 6.31 µM [inhibitor, single point]",–
CCC(C)NC(=O)CCC(=O)Nc1ccc2nc(N3CCOCC3)cc(C)c2c1 (centres undefined),inactive,–
COc1cc(NC(=O)c2cc(-c3ccc4c(c3)OCO4)on2)cc(OC)c1OC,"inconclusive: 31.6 µM [inhibitor, single point] and inconclusive: 11.2 µM [inhibitor, partial curve, poor fit]",–
O=C(CSc1ccccn1)Nc1ccc(Cl)c([N+](=O)[O-])c1,inactive,–
Cc1ccc2c(c1)nnn2C1CCN(S(=O)(=O)c2ccc(C(=O)N(C)C3CCCCC3)cc2)CC1,"inconclusive: 14.6 µM [inhibitor, partial curve, poor fit]",–
O=S(=O)(Nc1ccccn1)c1cnc(Cl)c(Br)c1,"inconclusive: 1.26 µM [activator, partial curve, poor fit]",–
COCC(=O)N1CCC(Oc2ccc(C(=O)NC3Cc4ccccc4C3)cc2)CC1,inactive,–
Cc1cccc(Nc2nnc(-n3nc(C)cc3C)c3ccccc23)c1,"inconclusive: 11.2 µM [activator, partial curve, poor fit]",–
COc1ccccc1CN(C(=O)c1cnccn1)C(C(=O)NC1CCCCC1)c1cc(OC)c(OC)c(OC)c1 (centres undefined),inactive,–
CCc1cccc2c(-c3ccccc3)nc(SCC(=O)Nc3ccccc3)nc12,inactive,–
Cc1ccc(-c2nnc(CSc3nc(C)nc4sc(C)c(C)c34)o2)cc1,inactive,–
CCN(Cc1ccccc1)Cc1cc(OC)cc(OC)c1,"inconclusive: 29.1 µM [inhibitor, single point]",–
COc1ccccc1/C=N/Nc1nccnc1Cl,inactive,–
COc1ccc(N(C(=O)Cn2cnc3ccccc32)C(C(=O)NC2CCCCC2)c2ccccc2)cc1 (centres undefined),"inconclusive: 23.1 µM [inhibitor, single point]",–
Clc1ccc(-c2nnc(-c3ccccc3)o2)cn1,inactive,–
COc1ccc(OC)c(C2CC(=O)c3c([nH]c(C(=O)OC4CCC(C)CC4)c3C)C2)c1 (centres undefined),"inconclusive: 35.5 µM [inhibitor, single point]",–
O=C(C[n+]1cc(-c2ccccc2)n2c1CCC2)Nc1nc(-c2ccc(F)cc2)cs1,"inconclusive: 0.282 µM [activator, partial curve, poor fit]",–
C/C(=N\NC(=O)c1cc2ccccc2cc1O)c1cc2ccccc2o1,"inconclusive: 12.6 µM [inhibitor, single point]",–
CCn1c(COc2ccc(=O)n(-c3ccccc3)n2)nnc1SCC(=O)OC,"inconclusive: 0.562 µM [activator, full curve, poor fit]",–
CN(C(=O)c1ccccc1OCc1ccc(Cl)cc1)c1ccccc1,"inconclusive: 17.8 µM [inhibitor, single point]",–
COC(=O)C1C(=O)C(C(=O)/C=C/c2ccccc2)C(=O)CC1(C)C (centres undefined),inactive,–
Cc1ccc2c(c1)C1CN(C)CCC1N2C(=O)c1cccc(S(=O)(=O)N2CC(C)CC(C)C2)c1 (centres undefined),"inconclusive: 35.5 µM [inhibitor, single point]",–
COc1ccccc1/C=C/C(=O)N1CCOCC1,inactive,–

Compound,Potency,"activity change, negative = inhibition"
COc1ccc(CN2CCCCCC2)cc1OC,"inconclusive: 0.355 µM [inhibitor, full curve, poor fit]",–
Cc1cccc(-n2ncc3c(NCCN4CCOCC4)ncnc32)c1,"inactive and inconclusive: 8.91 µM [activator, partial curve, poor fit]",–
CSc1ccc(CN2CCC(CO)(Cc3ccc(Cl)cc3)CC2)cc1,"inconclusive: 20 µM [inhibitor, partial curve, poor fit]",–
Fc1ccc(CNCCC(Cc2ccccc2)c2ccco2)cc1 (centres undefined),"inconclusive: 7.08 µM [inhibitor, full curve, poor fit]",–
COc1ccc(-c2cc(C(=O)N3CCN(c4ncccn4)CC3)c3ccccc3n2)c(OC)c1,"inconclusive: 12.6 µM [inhibitor, partial curve, poor fit]",–
O=C(Nc1ccc2oc(-c3cccc4ccccc34)nc2c1)c1ncn[nH]1,inactive,–
Cc1cc(NS(=O)(=O)c2ccc(NC(=O)COc3ccc(Cl)cc3)cc2)nc(C)n1,inactive,–
Cc1ccc(NC(=O)Nc2nnc(N(C)Cc3ccccc3)s2)cc1,"inconclusive: 11.2 µM [activator, partial curve, poor fit]",–
COc1ccc([N+](=O)[O-])cc1NC(=O)C(C)OC(=O)C1CCC1 (centres undefined),inactive,–
Cn1c(SCC(=O)N2CCCCCC2)nc2c([nH]c3ccccc32)c1=O,inactive,–
COc1ccc(C2C(C#N)=C(N)OC3=C2C(=O)CCC3)c(OC)c1OC (centres undefined),"inconclusive: 4.47 µM [activator, single point]",–
CC1CCCN(S(=O)(=O)c2ccc(NC(=O)CCN3C(=O)c4ccccc4C3=O)cc2)C1 (centres undefined),"inconclusive: 35.5 µM [inhibitor, single point]",–
Nc1nc(SCc2ccccn2)c2ncn(C3CCCC3)c2n1,"inconclusive: 5.62 µM [activator, full curve]",–
O=C(OC1CCOC1=O)C1CCN(S(=O)(=O)c2c(Cl)cccc2Cl)CC1 (centres undefined),"inconclusive: 6.31 µM [inhibitor, single point]",–
CC1CCCC(n2c(=S)[nH]c3ccccc3c2=O)C1C (centres undefined),"inconclusive: 29.1 µM [inhibitor, single point]",–
Cc1ccc(C(=O)NC(=S)NNC(=O)c2ccccc2O)cc1,"inconclusive: 35.5 µM [inhibitor, single point]",–
CCOC(=O)c1ccc(NC(=O)c2cc3cc(C)ccc3n2C)cc1,inactive,–
CC(=O)c1cc2c(cc1NC(=O)Cn1nc(C)c(C)c(C#N)c1=O)OCO2,inactive,–
NNC(=O)CCN1CCN(Cc2ccccc2)CC1,"inconclusive: 1.12 µM [inhibitor, full curve, poor fit]",–
Cc1c(C(=O)NC(=S)NCC(C)C)oc2ccccc12,"inconclusive: 35.5 µM [activator, single point]",–
Cc1sc(NC(=S)NC(=O)c2ccccc2)c(C#N)c1C,"inconclusive: 23.1 µM [activator, partial curve, poor fit]",–
CC1CC(C)(C)NC(=S)N1CCCC(=O)Nc1ccc(Cl)cc1 (centres undefined),inactive,–
COc1ccc(C2C=C(c3ccccc3)Nc3nc(NC(=O)c4ccc(C)cc4)nn32)cc1 (centres undefined),"inconclusive: 4.47 µM [activator, single point]",–
